# Results of single-concentration screens

By UniProt entry, the sequences of proteins in these tests, tags left out. Residues count along the entry.
UniProt P9WPC5, whole entry: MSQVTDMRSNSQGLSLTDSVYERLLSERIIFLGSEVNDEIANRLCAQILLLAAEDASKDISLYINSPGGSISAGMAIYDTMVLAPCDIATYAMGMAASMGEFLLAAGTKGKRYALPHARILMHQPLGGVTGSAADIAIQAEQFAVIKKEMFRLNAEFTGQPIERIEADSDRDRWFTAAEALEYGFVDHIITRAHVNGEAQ
UniProt P9WPC3, whole entry partner: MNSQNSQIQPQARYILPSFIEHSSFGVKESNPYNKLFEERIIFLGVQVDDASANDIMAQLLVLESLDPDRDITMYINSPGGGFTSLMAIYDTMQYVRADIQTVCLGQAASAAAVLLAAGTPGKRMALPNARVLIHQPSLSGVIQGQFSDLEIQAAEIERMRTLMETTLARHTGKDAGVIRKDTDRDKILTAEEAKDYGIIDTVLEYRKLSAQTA
UniProt P9WNZ1, whole entry: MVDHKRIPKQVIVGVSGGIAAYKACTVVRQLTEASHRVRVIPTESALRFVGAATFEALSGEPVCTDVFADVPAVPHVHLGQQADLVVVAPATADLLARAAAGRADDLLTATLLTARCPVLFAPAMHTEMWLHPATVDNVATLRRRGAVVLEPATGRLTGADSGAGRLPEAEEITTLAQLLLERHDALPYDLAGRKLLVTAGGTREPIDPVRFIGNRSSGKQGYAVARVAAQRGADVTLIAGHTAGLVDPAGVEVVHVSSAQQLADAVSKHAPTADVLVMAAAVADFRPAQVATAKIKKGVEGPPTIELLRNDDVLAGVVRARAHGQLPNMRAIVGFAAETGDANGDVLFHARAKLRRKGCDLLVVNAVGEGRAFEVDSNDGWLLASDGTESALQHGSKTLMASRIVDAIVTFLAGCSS
UniProt Q8IDJ8, 1-583: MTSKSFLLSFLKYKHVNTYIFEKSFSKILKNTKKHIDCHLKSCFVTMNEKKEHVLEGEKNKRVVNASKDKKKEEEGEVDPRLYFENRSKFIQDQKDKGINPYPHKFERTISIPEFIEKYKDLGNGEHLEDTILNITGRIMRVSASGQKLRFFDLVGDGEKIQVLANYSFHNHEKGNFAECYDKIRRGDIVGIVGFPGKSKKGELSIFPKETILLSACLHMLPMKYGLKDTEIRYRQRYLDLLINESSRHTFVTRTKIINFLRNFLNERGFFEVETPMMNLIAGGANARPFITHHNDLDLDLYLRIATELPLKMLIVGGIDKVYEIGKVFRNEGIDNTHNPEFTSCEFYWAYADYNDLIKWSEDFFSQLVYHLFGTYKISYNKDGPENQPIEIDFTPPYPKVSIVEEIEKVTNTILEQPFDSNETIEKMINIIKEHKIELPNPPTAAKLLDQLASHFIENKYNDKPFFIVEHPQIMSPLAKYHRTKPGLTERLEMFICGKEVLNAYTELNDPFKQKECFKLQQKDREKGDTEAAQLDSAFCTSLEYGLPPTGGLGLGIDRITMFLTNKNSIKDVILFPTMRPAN

Data taken from ChEMBL document CHEMBL3988442, “University of Dundee, Small-Polar-MMV Screening Library” (2021).

Each number is a percent effect as filed. How 0% and 100% were set is not recorded. Most values in the screen are low, and negative values occur. This is an unselected part of the compounds tested. Two or more numbers in one place are separate tests of the same structure; such repeats can differ widely.

A: 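ClpP1P2, Mycobacterium tuberculosis (UniProt P9WPC5 and UniProt P9WPC3). Protease assay of ClpP1P2, read by the AMC dye that it sets free. Concentration: 50 µM. Higher reads as stronger inhibition, judged from the few compounds that gave an IC50. Most other retested compounds had strongly negative values. Of about 69,000 compounds tested this way, about 10 (0.015%) reached 50% or more in at least one test.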
B: 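Enzyme assay of CoaBC with a phosphate dye (Biomol Green) read at 650 nm. Target: Coenzyme A biosynthesis protein CoaBC, Mycobacterium tuberculosis (UniProt P9WNZ1). Concentration: 30 µM. Higher reads as stronger inhibition, judged from the few compounds that gave an IC50. Most strong results did not repeat in a second test. Size under these conditions: about 67,000 compounds, about 40 of them at 50% or above in at least one test.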
C: 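Enzyme assay of the cytosolic lysyl-tRNA synthetase in 384-well plates, read by luminescence. Target: Lysine-tRNA ligase, Plasmodium falciparum 3D7 (UniProt Q8IDJ8). Compounds at 30 µM. Direction is inferred from only a few compounds that gave an IC50; most scored high, so higher reads as stronger inhibition. About 69,000 compounds were tested under these conditions; 0.071% (about 49) showed 50% or more at least once.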

- CC(C)CN1CCN(C(=O)c2[nH]nnc2Nc2ccccc2F)CC1 : A: -13.36%; B: 3.418%; C: 5.641%
- CN1CCCC(CNC(=O)N(C)Cc2ccc(Cl)c(F)c2)C1 (stereo unspecified) : A: -8.121%; B: 22.92% & 8.763%; C: -5.462%
- CCc1csc(C2CCCN(C(=O)c3ccc(=O)n(CC)n3)C2)n1 (stereo unspecified) : A: 9.966%; B: 5.29%; C: 2.082%
- Cn1cccc1C(=O)COc1ccc(S(N)(=O)=O)cc1 : A: 20.44%; B: 6.397%; C: 3.52%
- Cc1noc(-c2ccc(N(C)Cc3ccncc3C)nc2)n1 : A: -9.647%; B: -3.981%; C: 6.631%
- CS(=O)(=O)CCc1ncnn1-c1ccc(F)c(Cl)c1 : A: -10.17%; B: 9.719%; C: -1.346%
- CCC1CN(CCC(=O)N(C)C)CCN1CCOC (stereo unspecified) : A: 11.23%; B: -1.068%; C: 6.382%
- Cc1cc(O)cc(C2CCCN2C(=O)c2ccn(C)n2)n1 (stereo unspecified) : A: 3.199%; B: -1.35%; C: 0.6294%
- Cc1nnc(C2CCN(C(=O)c3ccsc3)CC2)s1 : A: -4.31%; B: -1.235%; C: 7.463%
- COCC(C)NC(=O)c1cncc(Br)c1 (stereo unspecified) : A: 4.801%; B: 3.182%; C: 3.613%
- COC(=O)N1CCCC(C(=O)Nc2ccccc2CN2CCCC2)C1 (stereo unspecified) : A: -11.84%; B: 1.582%; C: 3.8%
- Cc1cn2nc(N3CCCC3Cn3cccn3)sc2n1 (stereo unspecified) : A: -6.029%; B: -11.53%; C: -0.1474%
- Cc1cc(C)c(CNC(=O)NCCNc2ccccn2)c(=O)[nH]1 : A: -6.956%; B: 1.585%; C: -0.604%
- O=C1OCCN1CCSc1nnnn1C1CCOCC1 : A: 0.8363%; B: 9.2%; C: -2.366%
- Cc1occc1C(=O)N1CCn2cnc(COCC3CC3)c2C1 : A: 10.19%; B: 11.16%; C: 1.619%
- Cn1cc(S(=O)(=O)N2CCC(OCCCc3ccccc3)C2)cn1 (stereo unspecified) : A: -3.348%; B: -4.065%; C: 6.295%
- COc1cccc(CCC2CCCN(C(=O)c3cnccn3)C2)c1 (stereo unspecified) : A: -26.76%; B: 0%; C: 2.146%
- CC(C)NC(=O)C1CCc2nnc(CNC(=O)C3CC3)n21 (stereo unspecified) : A: -11.76%; B: 2.895%; C: -2.708%

The last 2 entries again:

Compound	A	B	C
COc1cccc(CCC2CCCN(C(=O)c3cnccn3)C2)c1 (stereo unspecified)	-26.76%	0%	2.146%
CC(C)NC(=O)C1CCc2nnc(CNC(=O)C3CC3)n21 (stereo unspecified)	-11.76%	2.895%	-2.708%